Results deposited as PubChem BioAssay AID1159584 (Peter MacCallum Cancer Centre, 2016)
Screen: 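Knock-downs that harm CDH1-null cells more than parental MCF10A cells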 (primary screen). System: human MCF10A breast epithelial cells, parental and CDH1-null. Reagent: siRNA against human genes. Read-out: 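ATP luminescence (CellTiter-Glo) viability per line relative to mean mock wells over all plates, and the ratio of CDH1-null to parental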. Scale: CDH1-null / parental viability ratio: higher = CDH1-null cells survive relatively better than parental; CDH1-null viability vs mock: higher = more viable CDH1-null cells; parental viability vs mock: higher = more viable parental cells.
The deposit covers about 18,000 reagents; below is a part drawn at random. The record does not give: the amount of reagent, the time to read-out.

no.	gene	CDH1-null / parental viability ratio	CDH1-null viability vs mock (fraction of mock)	parental viability vs mock (fraction of mock)
1	FCGR2C (Fc gamma receptor IIc (gene/pseudogene))	1.07	0.91	0.85
2	ZNF215 (zinc finger protein 215)	1.16	1.06	0.91
3	PXDNL (peroxidasin like)	1.03	0.78	0.76
4	RPP14 (ribonuclease P/MRP subunit p14)	1.16	0.92	0.79
5	CADPS (calcium dependent secretion activator)	0.79	0.57	0.72
6	LAMP1 (lysosome associated membrane protein 1)	0.77	0.72	0.94
7	C1QL1 (complement C1q like 1)	1.55	0.9	0.58
8	DNAJB13 (DnaJ heat shock protein family (Hsp40) member B13)	0.96	0.81	0.84
9	TMEM50A (transmembrane protein 50A)	1.53	0.92	0.6
10	OR2G6 (olfactory receptor family 2 subfamily G member 6)	1.03	0.68	0.66
11	HRH1 (histamine receptor H1)	0.84	0.78	0.93
12	TMOD3 (tropomodulin 3)	1.09	0.76	0.7
13	DPY19L3 (dpy-19 like C-mannosyltransferase 3)	0.74	0.48	0.65
14	SCAF1 (SR-related CTD associated factor 1)	1.32	0.62	0.47
15	CCDC86 (coiled-coil domain containing 86)	0.73	0.47	0.64
16	STXBP3 (syntaxin binding protein 3)	1.05	0.84	0.8
17	CRYBG2 (crystallin beta-gamma domain containing 2)	0.97	0.64	0.66
18	RSPO1 (R-spondin 1)	0.67	0.31	0.46
19	RNF151 (ring finger protein 151)	0.83	0.78	0.94
20	EMID1 (EMI domain containing 1)	0.9	0.54	0.6
21	GALNT14 (polypeptide N-acetylgalactosaminyltransferase 14)	1.26	1.08	0.86
22	PEAR1 (platelet endothelial aggregation receptor 1)	1.05	0.8	0.76
23	PSD (pleckstrin and Sec7 domain containing)	0.91	0.78	0.86
24	B4GALT6 (beta-1,4-galactosyltransferase 6)	0.93	0.78	0.84
25	HSPA6 (heat shock protein family A (Hsp70) member 6)	0.95	0.8	0.84
26	ADCY3 (adenylate cyclase 3)	1.11	0.97	0.87
27	NPAT (nuclear protein, coactivator of histone transcription)	1.08	0.71	0.66
28	TRPS1 (transcriptional repressor GATA binding 1)	0.95	0.73	0.77
29	HACL2 (2-hydroxyacyl-CoA lyase 2)	0.95	0.79	0.83
30	RMDN1 (regulator of microtubule dynamics 1)	1.1	0.87	0.79

An excerpt from above, reduced to “CDH1-null viability vs mock (fraction of mock)”:
PXDNL (peroxidasin like): 0.78
RPP14 (ribonuclease P/MRP subunit p14): 0.92
CADPS (calcium dependent secretion activator): 0.57
LAMP1 (lysosome associated membrane protein 1): 0.72
C1QL1 (complement C1q like 1): 0.9
DNAJB13 (DnaJ heat shock protein family (Hsp40) member B13): 0.81
TMEM50A (transmembrane protein 50A): 0.92
OR2G6 (olfactory receptor family 2 subfamily G member 6): 0.68
HRH1 (histamine receptor H1): 0.78
TMOD3 (tropomodulin 3): 0.76

The list goes on:
no.	gene	CDH1-null / parental viability ratio	CDH1-null viability vs mock (fraction of mock)	parental viability vs mock (fraction of mock)
31	HNF4A (hepatocyte nuclear factor 4 alpha)	1	0.9	0.9
32	CSRP2 (cysteine and glycine rich protein 2)	1.44	0.72	0.5
33	PDE6H (phosphodiesterase 6H)	0.97	0.76	0.78
34	SWAP70 (switching B cell complex subunit SWAP70)	1.32	0.98	0.74
35	ZNF25 (zinc finger protein 25)	1.26	0.72	0.57
36	EFL1 (elongation factor like GTPase 1)	1	0.78	0.78
37	TUBA8 (tubulin alpha 8)	0.99	0.76	0.77
38	HMGB3 (high mobility group box 3)	0.96	0.96	1
39	RALGPS1 (Ral GEF with PH domain and SH3 binding motif 1)	1.16	1.04	0.9
40	ST3GAL6 (ST3 beta-galactoside alpha-2,3-sialyltransferase 6)	1.05	0.92	0.88
41	STX2 (syntaxin 2)	0.91	0.86	0.94
42	CYB5D1 (cytochrome b5 domain containing 1)	1.05	0.67	0.64
43	TTYH1 (tweety family member 1)	1.23	1.01	0.82
44	CYP4V2 (cytochrome P450 family 4 subfamily V member 2)	1.12	1.05	0.94
45	LILRA4 (leukocyte immunoglobulin like receptor A4)	1	0.62	0.62
46	YIPF4 (Yip1 domain family member 4)	0.93	0.78	0.84
47	GALK2 (galactokinase 2)	0.96	0.65	0.68
48	HOXB8 (homeobox B8)	0.88	0.5	0.57
49	HSPA9 (heat shock protein family A (Hsp70) member 9)	0.94	0.88	0.94
50	RAB6C (RAB6C, member RAS oncogene family)	0.99	1	1.01
51	ATP8B2 (ATPase phospholipid transporting 8B2)	0.94	0.82	0.87
52	NLRP5 (NLR family pyrin domain containing 5)	0.59	0.66	1.12
53	HIP1 (huntingtin interacting protein 1)	1.05	0.64	0.61
54	LACTB2 (lactamase beta 2)	1.51	1.27	0.84
55	JUN (Jun proto-oncogene, AP-1 transcription factor subunit)	0.93	0.78	0.84
56	NQO2 (N-ribosyldihydronicotinamide:quinone dehydrogenase 2)	0.86	0.38	0.44
57	NTNG2 (netrin G2)	1.1	0.86	0.78
58	TIMM8B (translocase of inner mitochondrial membrane 8 homolog B)	1.08	0.54	0.5
59	ALOX15B (arachidonate 15-lipoxygenase type B)	0.93	0.78	0.84
60	SNRPE (small nuclear ribonucleoprotein polypeptide E)	1.44	0.56	0.39
61	TBK1 (TANK binding kinase 1)	0.85	0.88	1.04
62	MEGF9 (multiple EGF like domains 9)	1.08	1.06	0.98
63	C2CD2 (C2 calcium dependent domain containing 2)	1	0.7	0.7
64	RHOXF1 (Rhox homeobox family member 1)	1.03	0.8	0.78
65	SLCO3A1	1.25	1	0.8
66	TRPC4	1.19	0.87	0.73
67	PPP2R5A (protein phosphatase 2 regulatory subunit B'alpha)	1.25	0.9	0.72
68	ZNF667 (zinc finger protein 667)	0.95	0.7	0.74
